Measurements reported in paper PMC3355116.
These are yes or no findings as the source states them, for the method shown. Binding seen in cells or lysates may run through a third protein. A result given as binding can be weak or reduced; the word gives no strength. Sequences can lack the tags named with a protein.

Columns and labels:
Flag-ETS2 (human) = target: T1, Flag-ETS2 (human) (UniProt P15036); assay: co-IP; cotransfected Drosophila S2 cells lysed by sonication (50 mM Tris pH 7.5, 100 mM NaCl, 2 mM EDTA, 2 mM EGTA, 1% NP40); Flag conjugated agarose beads 3 hours at 4°C; western blot
T1 sequence: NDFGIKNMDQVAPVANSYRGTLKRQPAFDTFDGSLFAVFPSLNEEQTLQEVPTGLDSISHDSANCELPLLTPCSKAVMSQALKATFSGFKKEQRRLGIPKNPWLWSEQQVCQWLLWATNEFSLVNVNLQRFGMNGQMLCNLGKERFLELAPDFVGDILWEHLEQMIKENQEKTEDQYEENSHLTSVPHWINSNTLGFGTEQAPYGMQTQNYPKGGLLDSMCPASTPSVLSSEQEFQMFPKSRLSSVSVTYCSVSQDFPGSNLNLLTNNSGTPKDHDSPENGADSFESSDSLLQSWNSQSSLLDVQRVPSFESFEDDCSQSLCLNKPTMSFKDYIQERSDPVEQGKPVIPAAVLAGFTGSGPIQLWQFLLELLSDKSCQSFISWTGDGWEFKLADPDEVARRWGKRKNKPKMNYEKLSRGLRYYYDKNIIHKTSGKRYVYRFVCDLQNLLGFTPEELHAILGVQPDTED

Flag-ETS1 (human) = target: T2, Flag-ETS1 (human) (UniProt P14921); assay: as above
T2 sequence: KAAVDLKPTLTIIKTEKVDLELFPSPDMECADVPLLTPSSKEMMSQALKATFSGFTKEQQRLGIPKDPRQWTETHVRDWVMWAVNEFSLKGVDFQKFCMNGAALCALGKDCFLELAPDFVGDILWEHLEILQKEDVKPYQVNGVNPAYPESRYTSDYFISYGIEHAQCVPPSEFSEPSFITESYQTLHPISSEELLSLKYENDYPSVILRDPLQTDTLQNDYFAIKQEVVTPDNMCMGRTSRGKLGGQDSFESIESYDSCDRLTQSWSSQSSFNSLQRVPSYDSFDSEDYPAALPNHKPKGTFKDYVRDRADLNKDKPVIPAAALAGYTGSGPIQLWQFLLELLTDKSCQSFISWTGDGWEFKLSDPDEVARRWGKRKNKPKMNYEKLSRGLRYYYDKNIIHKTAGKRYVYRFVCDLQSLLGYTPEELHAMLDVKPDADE

- binding (Flag-ETS2 (human)): binds
- binding (Flag-ETS1 (human)): binds
Substance: Myc-Mae (Drosophila)
